Data: paper doi:10.1101/744821
These are yes or no findings as the source states them, for the method shown. Some results given as binding are weak or reduced against the parent protein; the word gives no strength.

Chains of the proteins cited; added tags and fusions are not shown. Residues count along the entry.
UniProt O00522, residues 417-736: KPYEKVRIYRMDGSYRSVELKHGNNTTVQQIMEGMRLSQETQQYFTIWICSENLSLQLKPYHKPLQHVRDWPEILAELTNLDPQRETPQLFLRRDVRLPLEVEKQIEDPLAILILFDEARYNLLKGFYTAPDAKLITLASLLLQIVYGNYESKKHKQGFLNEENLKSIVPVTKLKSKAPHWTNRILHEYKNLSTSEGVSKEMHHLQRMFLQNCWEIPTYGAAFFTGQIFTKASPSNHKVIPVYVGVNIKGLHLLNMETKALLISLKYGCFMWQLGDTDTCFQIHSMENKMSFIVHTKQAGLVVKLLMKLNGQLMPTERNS

Target: T1, biotinylated HEG1 cytoplasmic tail (a.a. 1274-1381) (UniProt Q9ULI3)
T1 sequence (chain, biotin on the in vivo biotinylation peptide tag): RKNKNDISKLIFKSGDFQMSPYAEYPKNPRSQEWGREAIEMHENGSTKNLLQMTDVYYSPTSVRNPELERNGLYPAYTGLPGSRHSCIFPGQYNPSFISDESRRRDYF
Assay: flow cytometry on beads

## His6-EGFP-KRIT1(WT) FERM domain (417-736) (from UniProt O00522 417-736) (domain or fragment)
  binding: binds
